# Source: US20090099197A1 (priority 2005, published 2009)
# Columns and labels:
# [1] = tested on: K562-R (K562/STI-571/R) imatinib resistant cells; experiment: cells; conditions: Homo sapiens, K-562R
# [2] = tested on: K562 (erythromyeloblastoid CML) cells; experiment: cells; conditions: Homo sapiens, K562, 72 h
structure (smiles),measurement,setting,value
"Cc1ccc(NC(=O)c2ccc(CN3CCN(C)CC3)cc2)cc1Nc1nccc(-c2cccnc2)n1 [imatinib, reference compound]",IC50,[1],> 12200 nM
same,IC50,[2],217 nM
